These results are taken from paper doi:10.1101/2021.12.17.472994.

The target in the experiment is T1, PATZ2 BTB domain (human), O43167.
T1 chain: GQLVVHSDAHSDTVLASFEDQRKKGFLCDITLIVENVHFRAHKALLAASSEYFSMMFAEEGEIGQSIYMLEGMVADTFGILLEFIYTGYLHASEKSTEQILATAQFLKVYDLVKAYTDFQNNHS
Kind of experiment: two-hybrid. To be noted: remark: other sources report otherwise.

No constants are given. Whether binding was seen depends on the method and setting. Some results given as binding are weak or reduced against the parent protein; the word gives no strength.

B1: PATZ2 BTB domain, O43167 10-133 (domain or fragment)
chain: GQLVVHSDAHSDTVLASFEDQRKKGFLCDITLIVENVHFRAHKALLAASSEYFSMMFAEEGEIGQSIYMLEGMVADTFGILLEFIYTGYLHASEKSTEQILATAQFLKVYDLVKAYTDFQNNHS
Consider B1, for which the binding entry is given as “binds”.
